Results are given in words; binding and its absence hold for the method and conditions named. Binding seen in cells or lysates may run through a third protein. Some binding calls cover weakened binding; strength is not graded here. Tags and fused reporters may be left off the sequences shown.
Molecular target: N-terminally V5-tagged wt^TEAD4 (full length) (human) (UniProt Q15561)
Test: co-IP

Chains of the proteins cited; added tags and fusions are not shown.
UniProt Q15561: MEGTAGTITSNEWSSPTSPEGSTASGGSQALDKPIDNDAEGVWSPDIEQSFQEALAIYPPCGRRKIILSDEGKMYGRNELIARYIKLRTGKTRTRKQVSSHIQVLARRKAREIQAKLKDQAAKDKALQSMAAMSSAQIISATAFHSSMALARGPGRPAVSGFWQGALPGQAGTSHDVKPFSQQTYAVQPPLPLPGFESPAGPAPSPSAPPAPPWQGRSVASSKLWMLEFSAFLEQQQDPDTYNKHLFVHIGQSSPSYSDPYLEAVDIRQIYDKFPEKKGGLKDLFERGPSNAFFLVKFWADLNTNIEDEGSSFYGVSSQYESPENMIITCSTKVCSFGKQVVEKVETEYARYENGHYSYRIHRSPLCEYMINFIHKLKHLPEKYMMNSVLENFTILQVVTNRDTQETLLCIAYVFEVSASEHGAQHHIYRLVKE

binding: binds
B1: (FLAG)3-wt^VGLL2 (full length) (protein, UniProt Q8N8G2-1 1-317)
chain: MSCLDVMYQVYGPPQPYFAAAYTPYHQKLAYYSKMQEAQECNASPSSSGSGSSSFSSQTPASIKEEEGSPEKERPPEAEYINSRCVLFTYFQGDISSVVDEHFSRALSQPSSYSPSCTSSKAPRSSGPWRDCSFPMSQRSFPASFWNSAYQAPVPPPLGSPLATAHSELPFAAADPYSPAALHGHLHQGATEPWHHAHPHHAHPHHPYALGGALGAQAAPYPRPAAVHEVYAPHFDPRYGPLLMPAASGRPARLATAPAPAPGSPPCELSGKGEPAGAAWAGPGGPFASPSGDVAQGLGLSVDSARRYSLCGASLLS

Source: publication doi:10.1101/2020.05.21.107789
